Experimental data from US9739767B2, “Method of screening for plant defense activators, plant defense activators, and method of enhancing immune response” (TOKYO UNIVERSITY OF SCIENCE FOUNDATION, priority 2010, dated 2017).
Some of these results come from one statement about several compounds together.

Tested on: tobacco BY-2 cells
Test: ROS generation in tobacco BY-2 cells after cryptogein (screening method)
Type: cell-based
Conditions: compound added 3 h before cryptogein, ROS level 5 h after elicitor (FIG. 1)

`COC[C@H]1OC(=O)c2coc3c2[C@@]1(C)C1=C(C3=O)[C@@H]2CCC(=O)[C@@]2(C)C[C@H]1OC(C)=O` [Compound 4, wortmannin] was tested, and the “enhancement of an immune response of a plant (screening method of the invention)” value was “enhancing an immune response of a plant”.
